Data on four molecules can be found in patent publication US20170260278A1.

Chains of the proteins cited; added tags and fusions are not shown. Lines headed by an entry give the natural chain unless they say otherwise; changes in a name come on top.
UniProt Q9QUG3: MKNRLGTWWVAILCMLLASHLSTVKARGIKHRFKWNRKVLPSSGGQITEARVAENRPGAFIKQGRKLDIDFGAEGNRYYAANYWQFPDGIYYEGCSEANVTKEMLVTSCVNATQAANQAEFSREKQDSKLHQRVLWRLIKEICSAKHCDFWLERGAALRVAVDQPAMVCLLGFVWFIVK

Assay [1] has as its target mouse doppel (mouse) (UniProt Q9QUG3). As to the kind of experiment: epitope mapping experiment.
For assay [2] the target is unchanged. Kind of assay: screening ELISA on mouse doppel; western blot of TEC lysates. (In general: ELISA stands for enzyme-linked immunosorbent assay.)
Assay [3] shares this target. As to the kind of experiment: peptide microarray of overlapping 15-residue peptides of mouse doppel (sequences on the x axis), antibody at 1 and 10 µg/ml, fluorescence intensity [a.u.].

These are yes or no findings as the source states them, for the method shown. Some binding calls cover weakened binding; strength is not graded here.

B1: anti-doppel monoclonal antibody produced by hybridoma cell line clone 4D6 (antibody, V domains shown)
VH: QVQLHQSGSELARPGASVKLSCKASGYTFTNYWMQWVKQRPGQGLEWIGAIYPGDGNTRYSQKFKGKATLTADKSSSTAYMQLSSLASEDSAVYYCARRDYGSSYWYFDVWGAGTTVTVSS
VL: DVLMTQTPLSLPVSLGDQASISCRSSQSIVHSNGNTYLEWYLQKPGQSPKLLIYKVSNRFSGVPDRFSGSGSGTDFTLKISRVEAEDLGVYYCFQGSHVPLTFGAGTKLELKR
Regarding B1, the binding entry in the assay with mouse doppel (mouse) [1], with mouse doppel (mouse) [2] and with mouse doppel (mouse) [3] was “binds” each time.

B2: anti-doppel monoclonal antibody produced by hybridoma cell line clone 1C8 (antibody, V domains shown)
VH: EVQLVESGGDLVKPGGSLKLSCAASGFTFSNYGMSWVRQTPDKRLEWVATISSGGRYIYYPDSVKGRFTVSRDNAKNTLYLQMSSLKSEDTAMYYCARDSSDYGFAYWGQGTLVTVSA
VL: DVLMTQIPLSLPVSLGDQASISCRSSQSIVHSNGNTYLEWYLQKPGQSPKLLIYKVSNRFSGVPDRFSGSGSGTDFTLKISRVEAEDLGVYYCFQGSHVPWTFGGGTKLEIKR
Take B2: the binding entry in the assay with mouse doppel (mouse) [2] is on record as “binds”.

B3: anti-doppel monoclonal antibody produced by hybridoma cell line clone 5C7 (antibody, V domains shown)
VH: QVQLQQSGTELVRPGSSVKISCKASGYAFSSHWMNWVKQRPGQGLEWIGQIYPRNGDTNYNGKFKGKATLTADKSSSTAYMQLSSLTSEDSAVYFCSRSTTIVTTGAYWGQGTLVTVSA
VL: DIQMTQSPSSLSASLGERVSLTCRASQEISGYLSWLQQKPDGTIKRLIYAASILDSGVPKRFSGSRSGSDYSLTISSLESEDFADYYCLQYASYPFMFGAGTKLELKR
On to B3, for which the binding entry with mouse doppel (mouse) [1], in the assay with mouse doppel (mouse) [2] and in the assay with mouse doppel (mouse) [3] was “binds” each time.

B4: anti-doppel monoclonal antibody produced by hybridoma cell line clone 6F11 (antibody, V domains shown)
VH: QVQLQQSGTELVRPGSSVKISCKASGYAFSSHWMNWVKQRPGQGLEWIGQIYPRNGDTNYNGKFKGKATLTADKSSSTAYMQLSSLTSEDSAVYFCSRSTTIVTTGAYWGQGTLVTVSA
VL: DIQMTQSPSSLSASLGERVSLTCRASQEISGYLSWLQQKPDGTIKRLIYAASILDSGVPKRFSGSRSGSDYSLTISSLESEDFADYYCLQYASYPFMFGAGTKLELKR
B4: the binding result in the assay with mouse doppel (mouse) [2] is on record as “binds”.
